PubChem BioAssay AID1259424, University of Nebraska Medical Center, 2018
Aim: 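Find knockdowns that reproduce the expression shifts seen after KSR1 loss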 (primary screen). Cells: human HCT116 colon cancer cells. Knock-down reagent: siRNA pool against human genes, 50 nM. Measured: 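Six signature mRNAs by branched-DNA multiplex assay, scaled to two housekeeping genes and non-targeting median, log2; matched to mean KSR1 knockdown profile by Pearson correlation and euclidean distance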. Direction: mean correlation with KSR1 profile: higher = expression change more like KSR1 knockdown.
Shown is a random part of about 14,000 reagents tested. 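Higher correlation or smaller distance means closer resemblance to KSR1 loss; control wells, including KSR1 knockdowns, recur on many plates.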 Further read-outs or replicates are left out here. Not stated in the record: the time to read-out.

Gene | mean correlation with KSR1 profile
RTN3 (reticulon 3) | -0.471
SLC9D1 | -0.327
PARD3 (par-3 family cell polarity regulator) | 0.48
CDKL3 (cyclin dependent kinase like 3) | 0.586
SUFU (SUFU negative regulator of hedgehog signaling) | 0.175
KIF2B (kinesin family member 2B) | -0.652
CALCRL (calcitonin receptor like receptor) | 0.291
PROKR1 (prokineticin receptor 1) | 0.872
PRSS3 (serine protease 3) | 0.369
WNT2 (Wnt family member 2) | 0.117
NSD3 (nuclear receptor binding SET domain protein 3) | -0.166
RMP24 (ribonuclease MRP subunit p24) | -0.0829
PLXND1 (plexin D1) | 0.225
RHOB (ras homolog family member B) | 0.544
ZDHHC5 (zDHHC palmitoyltransferase 5) | 0.57
KLHL22 (kelch like family member 22) | 0.794
GTF2H4 (general transcription factor IIH subunit 4) | -0.18
SNHG32 (small nucleolar RNA host gene 32) | -0.338
INGX (inhibitor of growth family, X-linked (pseudogene)) | -0.499
KLHL7 (kelch like family member 7) | 0.135
HPS6 (HPS6 biogenesis of lysosomal organelles complex 2 subunit 3) | -0.504
CDC25A (cell division cycle 25A) | 0.155
GGT7 (gamma-glutamyltransferase 7) | 0.375
BCORL1 (BCL6 corepressor like 1) | 0.383
ASPN (asporin) | 0.0251
JADE1 (jade family PHD finger 1) | 0.342
PIK3R1 (phosphoinositide-3-kinase regulatory subunit 1) | 0.792
HYAL2 (hyaluronidase 2) | -0.0273
ATAT1 (alpha tubulin acetyltransferase 1) | 0.379
ELAC2 (elaC ribonuclease Z 2) | -0.431
PLGRKT (plasminogen receptor with a C-terminal lysine) | 0.156
MTHFD1L | 0.297
ZNF208 (zinc finger protein 208) | -0.00913
GABPA (GA binding protein transcription factor subunit alpha) | 0.661
SECTM1 (secreted and transmembrane 1) | -0.662
DMRTA1 (DMRT like family A1) | -0.56
PAX2 (paired box 2) | -0.147
PNPLA2 (patatin like domain 2, triacylglycerol lipase) | -0.0405
GPR39 (G protein-coupled receptor 39) | -0.246
VDR (vitamin D receptor) | -0.523
HSD17B6 (hydroxysteroid 17-beta dehydrogenase 6) | -0.552
CLCA4 (chloride channel accessory 4) | -0.501
CHST1 (carbohydrate sulfotransferase 1) | -0.0784
GADD45B (growth arrest and DNA damage inducible beta) | 0.829
CYP4A11 (cytochrome P450 family 4 subfamily A member 11) | 0.635
SNX8 (sorting nexin 8) | 0.472
ZP3 (zona pellucida glycoprotein 3) | 0.323
PPAN (peter pan homolog) | -0.459
HABP2 (hyaluronan binding protein 2) | -0.216
GNA14 (G protein subunit alpha 14) | 0.546
